# Measurements reported in PubChem BioAssay AID529 (NMMLSC, 2006).
# Protein sequences, listed by entry. Tags and fused reporters are not part of them.
# UniProt P13612, whole entry, looked up: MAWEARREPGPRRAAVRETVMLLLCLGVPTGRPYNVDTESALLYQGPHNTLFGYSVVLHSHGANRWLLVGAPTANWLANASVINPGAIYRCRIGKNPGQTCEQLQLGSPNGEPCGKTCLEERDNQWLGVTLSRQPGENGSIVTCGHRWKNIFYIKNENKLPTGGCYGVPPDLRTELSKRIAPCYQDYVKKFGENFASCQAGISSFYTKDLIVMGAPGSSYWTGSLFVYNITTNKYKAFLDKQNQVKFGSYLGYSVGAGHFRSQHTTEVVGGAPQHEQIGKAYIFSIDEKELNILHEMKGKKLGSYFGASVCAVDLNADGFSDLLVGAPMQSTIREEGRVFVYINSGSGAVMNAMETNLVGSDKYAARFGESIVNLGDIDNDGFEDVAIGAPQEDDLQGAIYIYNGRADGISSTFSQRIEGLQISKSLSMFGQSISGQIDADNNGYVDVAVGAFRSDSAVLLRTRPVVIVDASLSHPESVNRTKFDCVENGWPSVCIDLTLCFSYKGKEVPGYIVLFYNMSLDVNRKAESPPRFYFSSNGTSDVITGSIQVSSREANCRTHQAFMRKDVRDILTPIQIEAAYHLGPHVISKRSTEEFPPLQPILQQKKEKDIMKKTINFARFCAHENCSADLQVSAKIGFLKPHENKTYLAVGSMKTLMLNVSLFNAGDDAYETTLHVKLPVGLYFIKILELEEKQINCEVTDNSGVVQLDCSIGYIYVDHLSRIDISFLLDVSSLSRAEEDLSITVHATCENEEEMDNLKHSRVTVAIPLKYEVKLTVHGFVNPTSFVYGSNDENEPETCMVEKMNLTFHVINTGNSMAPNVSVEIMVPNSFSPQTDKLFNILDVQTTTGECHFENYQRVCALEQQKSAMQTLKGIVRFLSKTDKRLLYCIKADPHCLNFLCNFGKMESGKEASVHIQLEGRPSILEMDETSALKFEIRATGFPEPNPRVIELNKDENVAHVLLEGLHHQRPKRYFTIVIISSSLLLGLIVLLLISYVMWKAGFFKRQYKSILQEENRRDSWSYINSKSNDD
# Among all 24,000 compounds or so, about 50 (0.2%) were called active. Inconclusive results, whose numbers are uncertain, are shown with a selection of clear calls.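 How the source made its calls: active means inhibition above 50%; inconclusive means compound itself fluorescent, judged against control cell fluorescence; inactive means the rest.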
# Molecular target: Integrin alpha-4 (Homo sapiens) (UniProt P13612)
# Test: blockers of LDV-FITC ligand binding on VLA-4 – Jurkat cells, Mn2+ activated, primary screen (AID 529);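 on inhibition: 0% = Mn2+ stimulated cells lacking compound and 100% = ligand binding without Mn2+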
# Conditions: LDV-FITC binding with Mn2+, flow cytometry; hits give high values, screened at 10 µM (by protocol), 100% = Mn2+-driven binding gain fully reversed unless noted
row,SMILES,inhibition
1,NC(=O)c1cc2ccc(O)cc2oc1=NCc1ccccc1,inconclusive
2,O=c1c2ccccc2nnn1CSc1nc2cc(Cl)ccc2c(=O)n1Cc1ccco1,inactive: -25%
3,CCOc1ccc(C(CC(=O)O)NC(=O)C23CC4CC(CC(C4)C2)C3)cc1 (stereo not drawn),active: 111%
4,CCOc1cc(N2CCOCC2)c(OCC)cc1NC(=O)CSc1cccc[n+]1[O-],inconclusive
5,Cc1ccc(C(c2sc3nc(C)nn3c2O)N2CCN(c3ccc(F)cc3)CC2)cc1 (stereo not drawn),inconclusive
6,CCOCCOC(=O)C1=C(C)Nc2ccc(C)cc2S1,inconclusive
7,CCn1c(SCC(=O)Nc2nc3ccc(C)cc3s2)nc2c(c1=O)SC(C)C2 (stereo not drawn),inactive: 16%
8,O=c1c2ccccc2nc2ccc(NCc3ccco3)nn12,inconclusive
9,CCc1c(C)n([O-])c2c([n+]1=O)CCC2,inconclusive
10,CCC1c2ccc(C)n2CCN1C(=O)Nc1ccc(F)cc1 (stereo not drawn),inconclusive
11,c1ccc2c(c1)CCN(CCCNc1nc3ccccc3n3cnnc13)C2,inconclusive
12,COc1cc(C2C(C(=O)Nc3ccccc3OC)=C(C)Nc3ncnn32)ccc1O (stereo not drawn),inconclusive
13,O=C(NCc1ccco1)c1cccc(-c2nnc(-c3ccccc3)o2)c1,inactive: 7.5%
14,COc1ccc(CCNC(=O)CN2C(=O)C3(OCCCO3)c3ccccc32)cc1OC,inactive: -7%
15,CCn1ncc(C2=NOC(C(=O)Nc3c(C)nn(Cc4ccc(F)cc4)c3C)C2)c1C (stereo not drawn),inconclusive
16,c1ccc(-c2nc3c4ccccc4nc(N4CCN(c5ccccn5)CC4)n3n2)cc1,inactive: -53%
17,Cc1c2c(nc3c(C(=O)NC4CCCCC4C)cnn13)CCCC2 (stereo not drawn),inconclusive
18,COc1ccc2c(c1)CCc1c(C(=O)NCCN3CCOCC3)noc1-2,inconclusive
19,Cc1cc(C)c2c(C)nn(C3CCCCC3)c2n1,inconclusive
20,CC1CCC(NC(=O)c2ccc(CS(=O)(=O)Cc3ccccc3F)o2)CC1 (stereo not drawn),inconclusive
21,Cc1ccc(C)c(-n2c(N)c(C(N)=O)sc2=S)c1,inconclusive
22,CNc1nnc(-c2cc3ccccc3oc2=O)s1,inconclusive
23,COc1ccccc1-c1cc(C(F)(F)F)nc(S(=O)(=O)CCCC(=O)NC(C)C)n1,inconclusive
24,Cc1oc(-c2cccs2)nc1CS(=O)CC(=O)NCCc1ccccc1 (stereo not drawn),inconclusive
25,COc1cc2c(C(=O)N3CCN(C4CCCCC4)CC3)cn(CC(C)C)c(=O)c2cc1OC,inconclusive
26,CCOC(=O)Nc1ccc(C(N)=O)cc1,inconclusive
27,CCOc1ccc(NC(=O)Cn2nnc(C(=O)NCc3ccccc3OC)c2N)cc1,inconclusive
28,Cc1ccc(-n2c(SCC(=O)Nc3nccs3)nc3c(c2=O)SCC3)cc1,inactive: 8%

# A draw from above in order of molar mass, smallest number first:
row,SMILES,inhibition
10,CCC1c2ccc(C)n2CCN1C(=O)Nc1ccc(F)cc1 (stereo not drawn),inconclusive
15,CCn1ncc(C2=NOC(C(=O)Nc3c(C)nn(Cc4ccc(F)cc4)c3C)C2)c1C (stereo not drawn),inconclusive
25,COc1cc2c(C(=O)N3CCN(C4CCCCC4)CC3)cn(CC(C)C)c(=O)c2cc1OC,inconclusive
